# No constants are given. Whether binding was seen depends on the method and setting. Some binding calls cover weakened binding; strength is not graded here.
# Molecular target: Trio DH2-PH2 (in the pPC97 vector), two-hybrid bait (UniProt O75962)
# Assay: yeast two-hybrid, 80-120 mM 3-AT
row,binding,Binder
1,binds,"AREGADGAICGYNLATLVMLGPSERVFCPLCGPCSTDIYELM (peptide, not shown: large carriers) [TRIP-like peptide E^32G/S^36T, two-hybrid clone in pPC86]"
2,binds,"AREGADGAICGYNLATLVMLGPSERVFCPLCGPCSSDIYELM (peptide, not shown: large carriers) [TRIP-like peptide E^32G, two-hybrid clone in pPC86]"
3,binds,"AREGADGAICGYNLAMSVMLGPSERVFCPLCEPCSSDIYELM (peptide, not shown: large carriers) [TRIP-like peptide T^16M/L^17S, two-hybrid clone in pPC86]"
4,binds,"AREGADGAICGYNLAALGMLGPSERVFCPLCGPCSSDNYELM (peptide, not shown: large carriers) [TRIP-like peptide T^16A/V^18G/E^32G/I^38N, two-hybrid clone in pPC86]"
5,binds,"AREGADGAICGYNLAMLVMLGPSERVFCPLCEPCSSDIYELM (peptide, not shown: large carriers) [TRIP-like peptide T^16M, two-hybrid clone in pPC86]"
6,binds,"AREGADGAICGYNLAMLVMLGPGERVFCPLCEPCSSDIYELM (peptide, not shown: large carriers) [TRIP-like peptide T^16M/S^32G, two-hybrid clone in pPC86]"
7,binds,"AREGADGAICGYNLAASVMLGPSERVFCPLCEPRSPDIYELM (peptide, not shown: large carriers) [TRIP-like peptide T^16A/L^17S/C^34R/S^36P, two-hybrid clone in pPC86]"
8,binds,"AREGADGAICGYDLAMLVMLGPSERVFCPLCEPRSSDIYELM (peptide, not shown: large carriers) [TRIP-like peptide N^13D/T^16M/C^34R, two-hybrid clone in pPC86]"
9,binds,"AREGADGAICGYNLATLAMLGPSARVFCPLCGPCSSDIYELM (peptide, not shown: large carriers) [TRIP-like peptide V^18A/E^24A/E^32G, two-hybrid clone in pPC86]"
10,binds,"AREGADGAICGYNLATLDMLGPSERVFCPLCEPCSSDSYELM (peptide, not shown: large carriers) [TRIP-like peptide V^18D/I^38S, two-hybrid clone in pPC86]"
11,binds,"TREGADGAICGYNLATLDMLGPSERVLCPLCEPCSSDIYELM (peptide, not shown: large carriers) [TRIP-like peptide A^1T/V^18D/F^27L, two-hybrid clone in pPC86]"
